A short description of the experiment: qHTS Assay for Lipid Storage Modulators in Drosophila S3 Cells.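 On cell number change: cells counted by Cell Tracker Red CMTPX staining in the red channel.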 The settings on record: BODIPY lipid droplet fluorescence, 18-24 h; for cell number change: measured here: cell count max response, cells fed with added oleic acid. Summed up: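 Laser-scanning cytometry quantifies lipid droplet accumulation (500–530 nm total intensity; droplet/cell object ratio) in oleic acid-fed (400 uM added) Drosophila S3 cells treated with a concentration series. 20 uM Triacsin C defined 100% inhibition.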
Background: Quantitative high-throughput screening tests each substance at several concentrations.

Where [1] appears, read: measured here: cell number channel AC50, cells fed with added oleic acid.
Where [2] appears, read: measured here: lipid fluorescence (Fed channel) AC50, cells fed with added oleic acid.

Some of the results follow. Shown are side measurements of this screen, not its main read-out; they come without a call. The list favours compounds with an active or inconclusive main result. The note in brackets gives the kind of curve behind each potency; many fits are weak.

As to `Cc1ccc(-c2ccc(=O)n(Cc3ccc(F)cc3)n2)cc1`, the cell number change was -48.9%. Besides, under setting [1], the AC50 was 16.4 µM [falling, partial curve]. Further, the half-maximal activity concentration (AC50) under setting [2] was 29.1 µM [falling, single point].

Regarding `O=C(c1cccnc1)N1C2C=CC(C2)C1(C(F)(F)F)C(F)(F)F` (stereo not drawn), the AC50 under setting [1] is 0.092 µM [rising, full curve, poor fit].

As for `O=C(CCC(=O)OCc1cccc([N+](=O)[O-])c1)Nc1ccccc1Cl`, the cell number change was -19.9%. The half-maximal activity concentration (AC50) under setting [2] is 8.91 µM [falling, partial curve].

Turning to `COc1ccc(C(=O)N2CCC(NC(=O)C(Cc3ccccc3OC)NC(C)=O)CC2)cc1` (stereo not drawn), the cell number change was 8.87%. In addition, the AC50 under setting [2] is 29.1 µM [rising, single point].

Turning to `N/C(=N\OC(=O)c1cccc(C(F)(F)F)c1)c1cnccn1`, under setting [2], the AC50 is 6.51 µM [rising, partial curve].

On to `O=C(CCc1nc2ccccc2c(=O)[nH]1)NCCN1C(=O)S/C(=C\c2ccccc2Cl)C1=O`, for which the cell number change turned out to be 33.8%. Under setting [1], the AC50 was 9.2 µM [rising, partial curve]. Under setting [2], the half-maximal activity concentration (AC50) is 9.2 µM [rising, partial curve].

Regarding `CCC(C)[C@H](NC(=O)N1CC(=O)Nc2ccccc21)C(=O)N[C@@H](Cc1c[nH]c2ccccc12)C(=O)O` (stereo partly drawn), the cell number change worked out at 38.8%. Further, the half-maximal activity concentration (AC50) under setting [1] was 29.1 µM [rising, single point].

On to `Cc1cc2ccccn2c1C(=O)c1cccc(S(=O)(=O)N2CCOCC2)c1`, for which the cell number change amounted to 15.2%. Also, under setting [2], the AC50 is 0.103 µM [falling, full curve, poor fit].

On to `CCOC(=O)c1c(NC(=O)COc2ncnc3ccccc23)sc(C)c1C`, for which the cell number change is -18.1%. In addition, under setting [1], the AC50 was 3.66 µM [rising, single point].

For the compound `CC(NC(=O)C1(c2cccs2)CCOCC1)c1ccccc1` (stereo not drawn), the cell number change is -37.8%. Under setting [1], the half-maximal activity concentration (AC50) is 29.1 µM [falling, single point].

With `Oc1ccc(-c2csc(-c3cccnc3)n2)c(O)c1`, the cell number change is -46.3%. In addition, under setting [1], the half-maximal activity concentration (AC50) is 1.3 µM [falling, full curve]. Besides, under setting [2], the half-maximal activity concentration (AC50) was 29.1 µM [falling, single point].

As for `O=C(CCc1nc2ccccc2c(=O)[nH]1)N1CCN(S(=O)(=O)c2ccc(Cl)c(C(F)(F)F)c2)CC1`, the cell number change was 8.88%. Besides, the half-maximal activity concentration (AC50) under setting [1] was 1.64 µM [rising, partial curve, poor fit]. In addition, the half-maximal activity concentration (AC50) under setting [2] is 2.31 µM [rising, partial curve].

Take `Cn1c(N)c(C(=O)COC(=O)c2cc(C3CC3)nc3ccccc23)c(=O)n(C)c1=O`: the cell number change is -0.968%. In addition, under setting [2], the AC50 was 4.11 µM [rising, single point].

As for `CC1CCN(c2ccc(NC(=O)c3cccnc3Cl)cc2)CC1`, the cell number change turned out to be 4.5%. In addition, the AC50 under setting [2] is 0.184 µM [falling, full curve, poor fit].

For `Cc1cccc(-n2nnnc2SCn2nnc3ccccc3c2=O)c1`, the cell number change was -33.7%. Moreover, the AC50 under setting [1] is 0.651 µM [falling, full curve, poor fit]. Further, the AC50 under setting [2] is 1.46 µM [rising, partial curve, poor fit].

Take `Cc1nc2ccc(C(=O)OCc3nnc(-c4ccccc4)o3)cc2nc1C`: the cell number change was -22.1%. Moreover, the AC50 under setting [2] was 29.1 µM [falling, single point].

On to `N#CC1=C(N)N(c2ccc(Cl)c(Cl)c2)C(=O)C1`, for which the half-maximal activity concentration (AC50) under setting [1] was 6.51 µM [falling, single point].

As for `CCOc1ccc(OCC(=O)N2CCOCC2)cc1`, the cell number change is -22.2%. In addition, under setting [2], the AC50 is 6.51 µM [falling, single point].

For the compound `Cc1ccc(N2CC(C(=O)NCCC3=CCCCC3)CC2=O)cc1` (stereo not drawn), the cell number change is -0.155%. Besides, the AC50 under setting [1] was 2.91 µM [falling, single point]. Also, the AC50 under setting [2] was 5.8 µM [falling, full curve].

With `COc1ccc(OC)c(S(=O)(=O)n2ccnc2C)c1`, the cell number change was found to be 50%. The AC50 under setting [1] is 3.66 µM [rising, partial curve]. Further, the AC50 under setting [2] was 1.84 µM [rising, partial curve].

As to `c1ccc(C[n+]2cccc3c4ccccc4ccc32)cc1`, the cell number change was -12.5%. Besides, the AC50 under setting [2] is 6.51 µM [falling, single point].

In the case of `COCCNC(=O)c1ccc2c3n(nc2c1)-c1ccc(C)cc1CO3`, the cell number change worked out at 17.3%. For the same compound, under setting [2], the AC50 was 0.82 µM [rising, full curve].

As for `O=C(COC(=O)C12CC3CC(CC(C3)C1)C2)Nc1ccc(OC(F)F)cc1`, the cell number change is -39.8%. Under setting [1], the concentration at half-maximal activity (AC50) was 18.4 µM [falling, partial curve, poor fit].

Regarding `OC1CCN(Cc2cn(Cc3ccccc3)nc2-c2cc3ccccc3o2)CC1`, the cell number change came to 15.3%. Besides, under setting [2], the AC50 is 18.4 µM [rising, partial curve].

On to `Cc1nnc(SCC(=O)Nc2cc(S(=O)(=O)N3CCCC3)ccc2Cl)s1`, for which the cell number change is -26.6%. In addition, under setting [2], the concentration at half-maximal activity (AC50) was 20.6 µM [falling, partial curve, poor fit].

Turning to `CC(C)(CNC(=S)NCCc1ccccc1)CNC(=S)NCCc1ccccc1`, the cell number change was -18.1%. Also, under setting [2], the concentration at half-maximal activity (AC50) was 29.1 µM [falling, single point].

In the case of `COC(=O)CN1C(=O)C(C)(C)Oc2ccc(C(=O)Nc3cccc(OC)c3)cc21`, the cell number change was -14.5%. Besides, under setting [2], the AC50 is 0.631 µM [rising, full curve].

In the case of `Cc1ccc(-n2c(SCC(=O)NC3CCS(=O)(=O)C3)nc3ccccc3c2=O)cc1C` (stereo not drawn), the cell number change amounted to 26.7%. The concentration at half-maximal activity (AC50) under setting [2] was 0.651 µM [rising, single point].

On to `CCN(CC(=O)Nc1cc(C)c(Cl)cc1OC)CC(=O)NC1CCS(=O)(=O)C1` (stereo not drawn), for which the AC50 under setting [2] was 3.26 µM [rising, single point].

As for `CN(C(=O)COC(=O)C1c2ccccc2Oc2ccccc21)C1CCS(=O)(=O)C1` (stereo not drawn), the cell number change came to 2.73%.

In the case of `Cc1ccccc1OCCn1c(=O)oc2ccccc21`, the cell number change worked out at 7.19%. Further, the AC50 under setting [2] was 5.17 µM [rising, partial curve].

Take `COc1ccc(/C=N/Nc2nc(NCc3ccco3)nc(Nc3ccc(OC)cc3)n2)cc1`: the cell number change was 33.1%. Besides, under setting [1], the concentration at half-maximal activity (AC50) is 4.61 µM [rising, partial curve]. In addition, under setting [2], the AC50 was 29.1 µM [rising, single point].

Take `Cc1ccc(NC2CCCN(C(=O)CCN3CCOCC3)C2)cc1C` (stereo not drawn): the cell number change is -2.6%. Further, the concentration at half-maximal activity (AC50) under setting [2] was 29.1 µM [rising, single point].

On to `Cc1cc(C(=O)CSc2nnc(-c3ccco3)o2)c(C)n1-c1ccc2c(c1)OCCO2`, for which the cell number change is -5.81%. Besides, under setting [2], the AC50 is 0.164 µM [falling, full curve, poor fit].

`Cc1onc(-c2ccccc2)c1C(=O)N1CCCC(C(F)(F)F)C1` (stereo not drawn): the cell number change was 10.2%.

Take `O=C(COC(=O)c1ccc(Br)o1)Nc1ncc([N+](=O)[O-])s1`: the cell number change was 2.89%.

`COc1ccc(NC(=O)c2c(NC(=O)CNCc3ccco3)sc3c2CCC3)cc1`: the cell number change was -29.2%. The AC50 under setting [2] is 20.6 µM [falling, partial curve, poor fit].

`COc1ccccc1NC(=O)c1ccc(Cl)c(S(=O)(=O)N2CCOCC2)c1`: the cell number change was -2.37%. In addition, under setting [2], the AC50 was 0.731 µM [rising, full curve, poor fit].

On to `C=CCNc1nc(Cl)nc(Nc2ccc(OCC)cc2)n1`, for which the cell number change is -36%. The half-maximal activity concentration (AC50) under setting [1] was 29.1 µM [falling, single point]. The AC50 under setting [2] is 29.1 µM [falling, single point].

`COc1ccc(S(=O)(=O)N2CCC(C(=O)NC3CC3)CC2)cc1C`: the cell number change amounted to 102%. Under setting [1], the AC50 was 13 µM [rising, partial curve, poor fit]. For the same compound, the AC50 under setting [2] was 29.1 µM [rising, single point].

In the case of `CCOc1ccccc1NC(=O)CSc1nnc(-c2cccnc2)o1`, the cell number change was -8.04%. For the same compound, the AC50 under setting [2] is 0.00517 µM [falling, full curve, poor fit].

In the case of `CNc1nc2c(Cl)cc(Cl)cc2s1`, the cell number change was 3.92%. Under setting [1], the half-maximal activity concentration (AC50) is 0.00517 µM [rising, full curve, poor fit].

For `Cn1c(SCC(=O)Nc2ccc(F)cc2)nnc1C1CC1`, the cell number change was -5%.

Take `C=CCNC(=O)N1c2ccccc2Sc2ccccc21`: the cell number change turned out to be 14.2%. Further, under setting [2], the AC50 was 0.82 µM [falling, full curve].

Consider `CCN(C(=O)COC(=O)c1c(C)noc1C)C1CCS(=O)(=O)C1` (stereo not drawn), for which the cell number change is -51.6%. In addition, the AC50 under setting [1] is 16.4 µM [falling, partial curve, poor fit]. In addition, under setting [2], the AC50 is 0.0058 µM [falling, full curve, poor fit].

As for `O=C(/C=N/NC(=O)c1ccccc1Br)c1ccccc1`, the cell number change was 88.6%. For the same compound, the concentration at half-maximal activity (AC50) under setting [1] is 29.1 µM [rising, single point]. Further, the AC50 under setting [2] is 29.1 µM [rising, single point].

In the case of `CCOc1ccccc1NC(=O)CSc1ncnc2c1oc1ccccc12`, the cell number change is -2.19%.

In the case of `Cc1ccccc1N(C(=O)CNC(=O)c1cccs1)C(C(=O)NC1CCCC1)c1ccncc1` (stereo not drawn), the cell number change is -7.89%. In addition, the concentration at half-maximal activity (AC50) under setting [2] was 35.5 µM [rising, single point].

Take `CCn1ncc([N+](=O)[O-])c1C(=O)Nc1c(C)cccc1C`: the cell number change was found to be 5.03%. The half-maximal activity concentration (AC50) under setting [2] was 3.66 µM [rising, full curve].

As for `O=C(NCC1CCN(S(=O)(=O)c2ccccc2)CC1)Nc1ccc(F)cc1`, the cell number change was -1.06%. In addition, the AC50 under setting [1] was 2.06 µM [rising, partial curve].

`C=CCn1c(CCc2cc(C(C)(C)C)c(O)c(C(C)(C)C)c2)n[nH]c1=S`: the cell number change was -4.81%. Further, under setting [2], the AC50 was 2.59 µM [rising, full curve, poor fit].

As to `CCSc1c(-c2ccccc2)nc2c(C)cccc2c1C(=O)O`, the cell number change was -34.3%. For the same compound, under setting [1], the AC50 was 32.6 µM [falling, single point]. The concentration at half-maximal activity (AC50) under setting [2] is 29.1 µM [falling, single point].

Regarding `COc1ccc2ccccc2c1CN(C)Cc1ccccc1`, the cell number change was -8.03%.

For the compound `CCCOc1ccc(Cl)cc1CN1CCOCC1`, the cell number change was -10.3%. Moreover, the AC50 under setting [2] was 0.92 µM [falling, partial curve, poor fit].

Consider `O=C(O)c1ccc(/C=N/Nc2nc(N3CCCCC3)nc(N3CCCCC3)n2)cc1`, for which the cell number change came out at 24.5%. For the same compound, under setting [2], the half-maximal activity concentration (AC50) is 29.1 µM [rising, single point].

Turning to `CCCS(=O)(=O)c1nc(S(=O)(=O)c2ccc(C)cc2)c(N2CCOCC2)s1`, the cell number change is -32.4%. The AC50 under setting [1] is 35.5 µM [falling, single point].

Regarding `Cc1csc(NC(=O)[C@@H]2CCCN2C(=O)c2cccs2)n1`, the cell number change came to 7.28%.

Consider `COc1cccc(C#Cc2c(CO)[nH]c3ccccc23)c1`, for which the cell number change was -0.776%. In addition, the concentration at half-maximal activity (AC50) under setting [2] was 25.9 µM [falling, single point].

Broadly, the AC50 is the concentration giving half of the maximal activity seen.

The record behind these values is PubChem BioAssay AID2685 (National Center for Advancing Translational Sciences (NCATS), 2010).
